Laboratory results published in PubChem BioAssay AID590 (National Center for Advancing Translational Sciences (NCATS), 2007).
Screen size: about 59,000 compounds; about 6,500 (11%) were called active. This list was built around the results that the source calls inconclusive (neither active nor inactive); the mix of calls is not that of the screen. Rule as the data show it: active = max dye-equivalent concentration above about 10 nM; inconclusive = mostly about 1.1 nM to 9.6 nM; inactive = weaker than that.

Assay: qHTS Assay for Spectroscopic Profiling in A350 Spectral Region
Details: Compound autofluorescence, 340/450 nm, Alexa 350 dye-equivalents; active compounds read high

**Q.** Which max dye-equivalent concentration does the source give for COc1ccc(-c2nnc3sc(COc4ccc(C)cc4)nn23)cc1 here?
**A.** Its max dye-equivalent concentration is inconclusive: 1.3 nM.

**Q.** For CC[C@H](c1ccccc1)c1cc(C(C)(C)C)cc(C(C)(C)C)c1O, which max dye-equivalent concentration is on record?
**A.** Its max dye-equivalent concentration is inconclusive: 2.3 nM.

**Q.** For Cc1ccc2cc(CN(Cc3ccco3)C(=O)c3ccccc3)c(=O)[nH]c2c1C, which max dye-equivalent concentration is on record?
**A.** Its max dye-equivalent concentration is inconclusive: 1.2 nM.

**Q.** With Cc1[nH]c2ccccc2c1CC(=O)O as the molecule, how does the max dye-equivalent concentration read?
**A.** The max dye-equivalent concentration was “inactive”.

**Q.** For COc1ccc(N2CCN(C(c3cccs3)C(C)NC(=O)c3ccco3)CC2)cc1 (stereo not drawn), which max dye-equivalent concentration is on record?
**A.** Its max dye-equivalent concentration is “inactive”.

**Q.** With N#CC1=C(N)SC(N)=C(C#N)C1CCc1ccccc1 as the molecule, how does the max dye-equivalent concentration read?
**A.** The max dye-equivalent concentration was inconclusive: 6.1 nM.

**Q.** For CN(C)CCN(Cc1ccc(Cl)cc1)c1ccccn1, which max dye-equivalent concentration is on record?
**A.** The max dye-equivalent concentration was inconclusive: 5.5 nM.

**Q.** Which max dye-equivalent concentration does the source give for Cc1ccccc1OCC(=O)Nc1ccc(N2CCN(S(C)(=O)=O)CC2)cc1 here?
**A.** The max dye-equivalent concentration was inconclusive: 8.2 nM.

**Q.** With CCOC(=O)N1CCN(c2c(NCCc3ccc(OCC)c(OCC)c3)c(=O)c2=O)CC1 as the molecule, how does the max dye-equivalent concentration read?
**A.** Its max dye-equivalent concentration is inconclusive: 2 nM.

**Q.** For O=C(CSc1nc(O)cc(=O)n1-c1ccccc1)N1CCCCC1, which max dye-equivalent concentration is on record?
**A.** The max dye-equivalent concentration was inconclusive: 1.4 nM.

**Q.** With COc1ccc(-c2coc3cc(O)ccc3c2=O)cc1OC as the molecule, how does the max dye-equivalent concentration read?
**A.** The max dye-equivalent concentration was active: 100 nM.

**Q.** Which max dye-equivalent concentration does the source give for CCCCc1ccc(-c2ccc(C)cc2O)nc1 here?
**A.** The max dye-equivalent concentration was “inactive”.

**Q.** Which max dye-equivalent concentration does the source give for c1ccc(CN2CC[C@@H](CNc3ncnc4ccccc34)C2)cc1 here?
**A.** Its max dye-equivalent concentration is “inactive”.

**Q.** For O=C(Oc1ccccc1)N1CCC2(CCCN(c3ncccn3)C2)CC1, which max dye-equivalent concentration is on record?
**A.** The max dye-equivalent concentration was “inactive”.

**Q.** Which max dye-equivalent concentration does the source give for Cc1ccc(C(=O)NC=C(Cl)Cl)cc1 here?
**A.** Its max dye-equivalent concentration is “inactive”.

**Q.** With O=C(CSc1nc(-c2ccco2)cc(C(F)(F)F)n1)NCC1CCCO1 (stereo not drawn) as the molecule, how does the max dye-equivalent concentration read?
**A.** The max dye-equivalent concentration was active: 11 nM.

**Q.** For O=C(CN1C(=O)COc2ccc(Cl)cc21)N1CCc2ccccc21, which max dye-equivalent concentration is on record?
**A.** Its max dye-equivalent concentration is “inactive”.

**Q.** For CC(NC(=O)Nc1ncccn1)(C(F)(F)F)C(F)(F)F, which max dye-equivalent concentration is on record?
**A.** The max dye-equivalent concentration was “inactive”.

**Q.** Which max dye-equivalent concentration does the source give for C[C@@H](CNC1CCCCC1)OC(=O)c1ccccc1 here?
**A.** Its max dye-equivalent concentration is “inactive”.

**Q.** For COc1ccc2[nH]c(=O)c(CN(Cc3ccccc3OC)Cc3nnnn3CC3CCCO3)cc2c1 (stereo not drawn), which max dye-equivalent concentration is on record?
**A.** Its max dye-equivalent concentration is active: 98 nM.

**Q.** For CC1(C)Oc2ccc(NC(=O)C3COc4ccccc4O3)cc2O1 (stereo not drawn), which max dye-equivalent concentration is on record?
**A.** Its max dye-equivalent concentration is inconclusive: 1.6 nM.

**Q.** With CCCCOc1cccc(-c2nnc(N)s2)c1 as the molecule, how does the max dye-equivalent concentration read?
**A.** Its max dye-equivalent concentration is inconclusive: 2.2 nM.

**Q.** For O=C(Cn1nc(C(=O)O)c2ccccc2c1=O)NCC1CCCO1 (stereo not drawn), which max dye-equivalent concentration is on record?
**A.** The max dye-equivalent concentration was inconclusive: 3.2 nM.

**Q.** For Cn1cc(SCC(=O)Nc2nc3ccccc3s2)c2ccccc21, which max dye-equivalent concentration is on record?
**A.** Its max dye-equivalent concentration is inconclusive: 4.1 nM.

**Q.** With CCOC(=O)N1CCC(Nc2nc3ccccc3n3nnnc23)CC1 as the molecule, how does the max dye-equivalent concentration read?
**A.** Its max dye-equivalent concentration is active: 15 nM.

**Q.** With CN1CCN(C(=O)c2cc3c(ccc4ccccc43)oc2=O)CC1 as the molecule, how does the max dye-equivalent concentration read?
**A.** Its max dye-equivalent concentration is active: 3200 nM.

**Q.** Which max dye-equivalent concentration does the source give for O=c1c(-c2ccc(F)cc2)nc2cnc(N3CCOCC3)nc2n1-c1ccccc1 here?
**A.** The max dye-equivalent concentration was active: 29 nM.

**Q.** Which max dye-equivalent concentration does the source give for O=C(CS(=O)(=O)c1ccccc1)c1ccc2c(c1)OCCO2 here?
**A.** The max dye-equivalent concentration was inconclusive: 1.8 nM.

**Q.** For Cc1cc2ncn(CC(O)COc3cccc(C(=O)O)c3)c2cc1C (stereo not drawn), which max dye-equivalent concentration is on record?
**A.** The max dye-equivalent concentration was inconclusive: 2.1 nM.

**Q.** For COc1ccccc1N1CCN(c2nc3ccccc3n3nnnc23)CC1, which max dye-equivalent concentration is on record?
**A.** The max dye-equivalent concentration was inconclusive: 7.2 nM.

**Q.** Which max dye-equivalent concentration does the source give for O=C(c1coc2ccccc2c1=O)N1CCN(c2cccc(C(F)(F)F)c2)CC1 here?
**A.** Its max dye-equivalent concentration is “inactive”.

**Q.** Which max dye-equivalent concentration does the source give for CC(=O)[C@@H]1[C@@H]2C(=O)N(Cc3ccccc3)C(=O)[C@@H]2C2c3ccccc3C=CN21 (stereo partly drawn) here?
**A.** Its max dye-equivalent concentration is inconclusive: 3.4 nM.

**Q.** For Cc1cc(N2CCN(c3ccccc3)CC2)nc(-c2ccccc2)n1, which max dye-equivalent concentration is on record?
**A.** The max dye-equivalent concentration was inconclusive: 1.5 nM.

**Q.** With O=C(OCc1ccc(F)cc1Cl)c1ccccn1 as the molecule, how does the max dye-equivalent concentration read?
**A.** Its max dye-equivalent concentration is inconclusive: 4.9 nM.

**Q.** With CCOC(=O)N1CCN(C(=O)c2ccc3c(=O)n(Cc4ccc(Cl)cc4)c(=S)[nH]c3c2)CC1 as the molecule, how does the max dye-equivalent concentration read?
**A.** The max dye-equivalent concentration was “inactive”.

**Q.** For COCCn1c(=S)[nH]c2cc(C(=O)NCC3CCCO3)ccc2c1=O (stereo not drawn), which max dye-equivalent concentration is on record?
**A.** The max dye-equivalent concentration was inconclusive: 3.5 nM.

**Q.** Which max dye-equivalent concentration does the source give for Cc1ccccc1-n1c(SC(C)C(N)=O)nnc1-c1cccnc1 (stereo not drawn) here?
**A.** Its max dye-equivalent concentration is inconclusive: 3.2 nM.

**Q.** With COc1ccc([C@@H]2CC(=O)c3c(O)cc(O[C@H]4O[C@@H](CO[C@H]5O[C@@H](C)[C@@H](O)[C@@H](O)[C@@H]5O)[C@@H](O)[C@@H](O)[C@@H]4O)cc3O2)cc1O as the molecule, how does the max dye-equivalent concentration read?
**A.** The max dye-equivalent concentration was “inactive”.

**Q.** Which max dye-equivalent concentration does the source give for CCCCn1c(CCNC(=O)c2cccs2)nc2ccccc21 here?
**A.** The max dye-equivalent concentration was inconclusive: 1.2 nM.

**Q.** For O=S1(=O)CCC(N=Cc2cc(Br)ccc2O)C1 (stereo not drawn), which max dye-equivalent concentration is on record?
**A.** Its max dye-equivalent concentration is inconclusive: 1.2 nM.

**Q.** Which max dye-equivalent concentration does the source give for COc1cccc2cc(C(=O)NC(C)C3CCCO3)c(=O)oc12 (stereo not drawn) here?
**A.** The max dye-equivalent concentration was inconclusive: 8.4 nM.

**Q.** With CCc1cc(=O)oc2cc(C)c3c(C)coc3c12 as the molecule, how does the max dye-equivalent concentration read?
**A.** Its max dye-equivalent concentration is active: 38 nM.

**Q.** Which max dye-equivalent concentration does the source give for COc1ccccc1CNc1ncnc2ccc(-c3ccccc3C#N)cc12 here?
**A.** Its max dye-equivalent concentration is inconclusive: 1.6 nM.

**Q.** For C[N+]12CCC(CC1)[C@@H](OC(=O)C(O)(c1ccccc1)c1ccccc1)C2, which max dye-equivalent concentration is on record?
**A.** The max dye-equivalent concentration was inconclusive: 3.3 nM.

**Q.** With O=C(Nc1ccc2c(c1)OCCO2)c1cncc(Br)c1 as the molecule, how does the max dye-equivalent concentration read?
**A.** Its max dye-equivalent concentration is inconclusive: 2.5 nM.

**Q.** With N#Cc1c(N2C(=O)C3C4C=CC(C4)C3C2=O)sc2c1CCC2 (stereo not drawn) as the molecule, how does the max dye-equivalent concentration read?
**A.** Its max dye-equivalent concentration is inconclusive: 3.4 nM.

**Q.** Which max dye-equivalent concentration does the source give for CC(C)Cn1cc(C(=O)N2CCN(c3ccccn3)CC2)c2c3ccccc3n(C)c2c1=O here?
**A.** The max dye-equivalent concentration was active: 71 nM.

**Q.** Which max dye-equivalent concentration does the source give for COc1ccc(S(=O)(=O)N[C@H](C(=O)N2CC[C@@]3(O)CCCC[C@H]3C2)c2ccccc2)cc1 here?
**A.** The max dye-equivalent concentration was inconclusive: 3.5 nM.

**Q.** With Nc1c(C(=O)NC2CCCC2)c2nc3ccccc3nc2n1N as the molecule, how does the max dye-equivalent concentration read?
**A.** The max dye-equivalent concentration was active: 12 nM.

**Q.** For Cc1cc(C)nc(Nc2n[nH]c(COc3ccc(Cl)cc3)n2)n1, which max dye-equivalent concentration is on record?
**A.** The max dye-equivalent concentration was inconclusive: 1.7 nM.

**Q.** Which max dye-equivalent concentration does the source give for COc1ccccc1-c1ccc2ncnc(N3CCN(C)CC3)c2c1 here?
**A.** The max dye-equivalent concentration was “inactive”.

**Q.** Which max dye-equivalent concentration does the source give for CCC(=O)N1CCc2cc(Br)cc(S(=O)(=O)CCC(=O)NCC3CCCO3)c21 (stereo not drawn) here?
**A.** The max dye-equivalent concentration was “inactive”.

**Q.** With CCNc1ncc2nc(C)c(=O)n(C3CC3)c2n1 as the molecule, how does the max dye-equivalent concentration read?
**A.** Its max dye-equivalent concentration is active: 19 nM.

**Q.** With Cn1c(CN2CCCCC2)c(C#N)c2ccccc21 as the molecule, how does the max dye-equivalent concentration read?
**A.** The max dye-equivalent concentration was inconclusive: 4.8 nM.

**Q.** Which max dye-equivalent concentration does the source give for Cc1cc(C)n(CCc2nc3c4ccccc4nc(SCc4ccc(C#N)cc4)n3n2)n1 here?
**A.** The max dye-equivalent concentration was inconclusive: 3.1 nM.

**Q.** For Cn1ccnc1SCc1cn2cc(Br)ccc2n1, which max dye-equivalent concentration is on record?
**A.** Its max dye-equivalent concentration is “inactive”.

**Q.** Which max dye-equivalent concentration does the source give for C=CCOC(=O)C1=C(C)NC(SC)=C(C#N)C1c1ccc(OCC)cc1 (stereo not drawn) here?
**A.** Its max dye-equivalent concentration is active: 32 nM.

**Q.** For O=C(CCCN1CCC(O)(c2ccc(Cl)cc2)CC1)c1ccc(F)cc1, which max dye-equivalent concentration is on record?
**A.** Its max dye-equivalent concentration is inconclusive: 1.4 nM.
